# These are yes or no findings as the source states them, for the method shown. In cells and extracts the contact can be indirect. These calls come from enrichment with a bait or labelling near it, and not all partners need be listed. For part of these data: No binding means not detected with the bait. Where a sequence is shown, tags or fusion partners need not be part of it.
# T1: Rps2(224-254)-GFP (S. cerevisiae) (UniProt P25443)
# T1 sequence: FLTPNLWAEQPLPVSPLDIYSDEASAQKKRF
# T2: Rps2(1-73)-GFP (S. cerevisiae) (UniProt P25443)
# T2 sequence: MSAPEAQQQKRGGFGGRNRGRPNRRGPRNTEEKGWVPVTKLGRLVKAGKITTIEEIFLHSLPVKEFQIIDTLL
# T3: Rps2(Δ74-223)-GFP (S. cerevisiae) (UniProt P25443)
# T3 sequence: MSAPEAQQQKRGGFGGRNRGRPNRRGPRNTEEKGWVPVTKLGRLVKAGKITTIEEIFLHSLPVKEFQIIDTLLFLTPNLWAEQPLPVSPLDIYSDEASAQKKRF
# T4: Rps2(1-223)-GFP (S. cerevisiae) (UniProt P25443)
# T4 sequence: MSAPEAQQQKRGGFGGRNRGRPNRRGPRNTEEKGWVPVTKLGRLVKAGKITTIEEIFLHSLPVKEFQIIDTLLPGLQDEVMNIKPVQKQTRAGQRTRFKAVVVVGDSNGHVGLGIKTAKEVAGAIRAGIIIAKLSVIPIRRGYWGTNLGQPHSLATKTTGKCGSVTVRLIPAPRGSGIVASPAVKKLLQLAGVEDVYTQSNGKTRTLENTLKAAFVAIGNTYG
# T5: Rps2(1-235)-GFP (S. cerevisiae) (UniProt P25443)
# T5 sequence: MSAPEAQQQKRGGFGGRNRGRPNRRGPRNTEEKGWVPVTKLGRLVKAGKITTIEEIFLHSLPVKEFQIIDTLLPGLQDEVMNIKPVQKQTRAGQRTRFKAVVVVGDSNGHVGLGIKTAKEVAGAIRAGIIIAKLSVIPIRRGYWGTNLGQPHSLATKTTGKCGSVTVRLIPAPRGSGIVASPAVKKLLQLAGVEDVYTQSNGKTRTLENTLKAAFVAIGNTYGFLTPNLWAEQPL
# T6: full-length Rps2-GFP (S. cerevisiae) (UniProt P25443)
# T6 sequence: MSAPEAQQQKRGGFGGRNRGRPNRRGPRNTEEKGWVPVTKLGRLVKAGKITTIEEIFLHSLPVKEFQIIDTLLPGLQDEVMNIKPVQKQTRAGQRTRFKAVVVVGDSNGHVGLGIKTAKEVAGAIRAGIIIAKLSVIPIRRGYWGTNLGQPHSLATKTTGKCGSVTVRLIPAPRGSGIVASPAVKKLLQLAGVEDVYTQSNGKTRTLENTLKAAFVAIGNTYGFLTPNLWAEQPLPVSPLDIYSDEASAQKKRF
# Assays:
# Assay in all cases: affinity purification with mass spectrometry
# [1] = biological target: T1, Rps2(224-254)-GFP (S. cerevisiae)
# [2] = biological target: T2, Rps2(1-73)-GFP (S. cerevisiae)
# [3] = biological target: T3, Rps2(Δ74-223)-GFP (S. cerevisiae)
# [4] = biological target: T4, Rps2(1-223)-GFP (S. cerevisiae)
# [5] = biological target: T5, Rps2(1-235)-GFP (S. cerevisiae)
# [6] = biological target: T6, full-length Rps2-GFP (S. cerevisiae)
Binder,binding [1],binding [2],binding [3],binding [4],binding [5],binding [6]
"Kap123 (protein, UniProt P40069 1-1113) MDQQFLSQLEQTLHAITSGVGLKEATKTLQTQFYTQPTTLPALIHILQNGSDDSLKQLAGVEARKLVSKHWNAIDESTRASIKTSLLQTAFSEPKENVRHSNARVIASIGTEELDGNKWPDLVPNLIQTASGEDVQTRQTAIFILFSLLEDFTSSLSGHIDDFLALFSQTINDPSSLEIRSLSAQALNHVSALIEEQETINPVQAQKFAASIPSVVNVLDAVIKADDTMNAKLIFNCLNDFLLLDSQLTGNFIVDLIKLSLQIAVNSEIDEDVRVFALQFIISSLSYRKSKVSQSKLGPEITVAALKVACEEIDVDDELNNEDETGENEENTPSSSAIRLLAFASSELPPSQVASVIVEHIPAMLQSANVFERRAILLAISVAVTGSPDYILSQFDKIIPATINGLKDTEPIVKLAALKCIHQLTTDLQDEVAKFHEEYLPLIIDIIDSAKNIVIYNYATVALDGLLEFIAYDAIAKYLDPLMNKLFYMLESNESSKLRCAVVSAIGSAAFAAGSAFIPYFKTSVHYLEKFIQNCSQIEGMSEDDIELRANTFENISTMARAVRSDAFAEFAEPLVNSAYEAIKTDSARLRESGYAFIANLAKVYGENFAPFLKTILPEIFKTLELDEYQFNFDGDAEDLAAFADSANEEELQNKFTVNTGISYEKEVASAALSELALGTKEHFLPYVEQSLKVLNEQVDESYGLRETALNTIWNVVKSVLLASKVEPESYPKGIPASSYVNADVLAVIQAARETSMGNLSDEFETSMVITVMEDFANMIKQFGAIIIMDNGDSSMLEALCMQVLSVLKGTHTCQTIDIEEDVPRDEELDASETEATLQDVALEVLVSLSQALAGDFAKVFDNFRPVVFGLFQSKSKNKRSSAVGAASELALGMKEQNPFVHEMLEALVIRLTSDKSLEVRGNAAYGVGLLCEYASMDISAVYEPVLKALYELLSAADQKALAAEDDEATREIIDRAYANASGCVARMALKNSALVPLEQTVPALLAHLPLNTGFEEYNPIFELIMKLYQENSPVITNETPRIIEIFSAVFTKENDRIKLEKESTLGREENMERLKQFQTEEMKHKVIELLKYLNTTYNGIVAQNPVLAAVIA",no binding,no binding,no binding,,,
"Tsr4 (protein, UniProt P25040 1-408) MSKIEELPPSDTDDHSYSSKPGDVFLAFVDAPVKETDDILVEDSFIGGEPKWLHPDSEPPAELLKCGACKSADNMKLLLQAFSPLDDEQMSAIQQRLGINNMSYINPQDDRVLYVFLCTECQRKGNSVRCIRGVKKNKNVDSLSEKMASTSLEKDFQINPFDLSNNSDSKCNAFSSNPFGGANANPFGADSINSNISQSKDEGKKKESATVSAKTARKLHDLQKDKEYDGNKCFKSCLLYVEEETFKNKKPAHLQLPKNLKIDKEALDLTGDEDLEKDPIKLDPRTEKLSKFLDDDTFQKFQEVVGYNPLQVLRYDLGGKPLLYAETKVDILSTVPRPGYNPSSQRIFEMQLMPKMIFDLEEVVSVDNGMEWGTILVFTDVENYMPEFDEHGVGYVEECVKVQWESRT",no binding,binds,binds,binds,binds,binds
"Kap104 (protein, UniProt P38217 1-918) MASTWKPAEDYVLQLATLLQNCMSPNPEIRNNAMEAMENFQLQPEFLNYLCYILIEGESDDVLKQHYSLQDLQNNRATAGMLLKNSMLGGNNLIKSNSHDLGYVKSNIIHGLYNSNNNLVSNVTGIVITTLFSTYYRQHRDDPTGLQMLYQLLELTSNGNEPSIKALSKIMEDSAQFFQLEWSGNTKPMEALLDSFFRFISNPNFSPVIRSESVKCINTVIPLQTQSFIVRLDKFLEIIFQLAQNDENDLVRAQICISFSFLLEFRPDKLVSHLDGIVQFMLHLITTVNEEKVAIEACEFLHAFATSPNIPEHILQPYVKDIVPILLSKMVYNEESIVLLEASNDDDAFLEDKDEDIKPIAPRIVKKKEAGNGEDADDNEDDDDDDDDEDGDVDTQWNLRKCSAATLDVMTNILPHQVMDIAFPFLREHLGSDRWFIREATILALGAMAEGGMKYFNDGLPALIPFLVEQLNDKWAPVRKMTCWTLSRFSPWILQDHTEFLIPVLEPIINTLMDKKKDVQEAAISSVAVFIENADSELVETLFYSQLLTSFDKCLKYYKKKNLIILYDAIGRFAEKCALDETAMQIILPPLIEKWALLSDSDKELWPLLECLSCVASSLGERFMPMAPEVYNRAFRILCHCVELEAKSHQDPTIVVPEKDFIITSLDLIDGLVQGLGAHSQDLLFPQGTKDLTILKIMLECLQDPVHEVRQSCFALLGDIVYFFNSELVIGNLEDFLKLIGTEIMHNDDSDGTPAVINAIWALGLISERIDLNTYIIDMSRIILDLFTTNTQIVDSSVMENLSVTIGKMGLTHPEVFSSGAFANDSNWNKWCLSVNALDDVEEKSSAYMGFLKIINLTSTEVTMSNDTIHKIVTGLSSNVEANVFAQEIYTFLMNHSAQISAINFTPDEISFLQQFTS",no binding,no binding,no binding,,,
